## Library screening results

Amino acid sequences for entries named in this document (tags omitted).
UniProt E9BF75, entry or part of it: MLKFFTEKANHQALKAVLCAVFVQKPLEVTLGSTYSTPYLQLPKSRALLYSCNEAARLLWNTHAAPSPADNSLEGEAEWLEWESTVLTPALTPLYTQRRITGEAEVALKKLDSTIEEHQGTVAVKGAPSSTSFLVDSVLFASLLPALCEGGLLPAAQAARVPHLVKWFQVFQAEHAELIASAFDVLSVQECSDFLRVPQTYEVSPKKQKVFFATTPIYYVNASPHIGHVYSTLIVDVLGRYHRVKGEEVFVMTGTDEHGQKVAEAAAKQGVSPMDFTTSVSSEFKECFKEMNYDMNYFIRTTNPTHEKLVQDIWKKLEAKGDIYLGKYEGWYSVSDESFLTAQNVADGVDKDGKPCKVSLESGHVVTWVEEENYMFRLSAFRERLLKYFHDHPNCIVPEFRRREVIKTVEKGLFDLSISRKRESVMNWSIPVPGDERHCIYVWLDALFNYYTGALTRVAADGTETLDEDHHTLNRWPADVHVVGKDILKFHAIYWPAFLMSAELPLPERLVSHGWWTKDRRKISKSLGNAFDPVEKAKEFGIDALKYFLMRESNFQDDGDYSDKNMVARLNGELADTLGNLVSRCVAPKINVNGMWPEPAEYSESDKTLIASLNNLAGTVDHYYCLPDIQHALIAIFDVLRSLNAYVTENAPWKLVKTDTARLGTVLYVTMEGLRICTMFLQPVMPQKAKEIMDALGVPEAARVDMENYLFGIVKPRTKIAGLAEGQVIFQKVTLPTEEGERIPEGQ

Measurements from “University of Dundee, Small-Polar-MMV Screening Library” (2021), ChEMBL document CHEMBL3988442.

LdMetRS: 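Methionyl-tRNA synthetase (putative), Leishmania donovani (UniProt E9BF75). Primary screen of methionyl-tRNA synthetase; the read-out is not stated. The test concentration is not given. Values are per cent inhibition. Size under these conditions: about 68,000 compounds, about 24 of them at 50% or above in at least one test.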
Mtb heat-shock: 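Assay on Mycobacterium tuberculosis, filed only as a heat shock assay from Cornell; the read-out is not stated. The concentration is filed as 10 mM, unlikely as a test dose, so the dose is not known. Higher reads as stronger inhibition (inferred: compounds with an IC50 in retests scored well above the rest). Of about 69,000 compounds tested this way, about 930 (1.4%) reached 50% or more in at least one test.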

Results are percentages, as filed. The record does not define 0% and 100%; most values in the screen are far below 50% and negative numbers occur (in some assays of this library far below -100). This is an unselected part of the compounds tested. A dash means the value is not listed here; it may have been measured.

| SMILES | LdMetRS | Mtb heat-shock |
|---|---|---|
| `COC(=O)Cc1cccc(NC(=O)Cc2cc(C)[nH]n2)c1` | 11.85% | 3.276% |
| `CC(C)CCN1C(=O)c2ccc(C(=O)NCCc3c[nH]cn3)cc2C1=O` | 5.46% | -26.79% |
| `CCc1noc(CN(C)C(=O)COc2cc(Cl)cc(Cl)c2)n1` | 11.08% | 34.52% |
| `CC(C)c1nnc2n1CCN(C(=O)c1ccc(Cn3cccc3)cc1)C2` | 18.21% | 9.013% |
| `Cn1c2c(ccc1=O)CC(Nc1ncc(F)cn1)CC2` (stereo unspecified) | 12.94% | - |
| `O=S(=O)(NCCC(O)c1cccs1)c1c(F)cccc1F` (stereo unspecified) | 7.194% | 6.8% |
| `COc1cc(C(=O)O)ccc1OCC(=O)NCCc1ccccc1` | 13.33% | 20.18% |
| `Cc1ncoc1C(=O)N1C[C@H]2CCC[C@@]2(COCc2cccnc2)C1` | 8.125% | - |
| `COCC1CC2(CCN(Cc3ccncc3)CC2)CN1C(C)C` (stereo unspecified) | 3.922% | - |
| `O=C(NCCCO)C1CC(=O)N(c2n[nH]c3cccc(F)c23)C1` (stereo unspecified) | 7.884% | -0.3558% |
| `Cc1cnc(CN2CCCC2c2cnn(C)c2)cn1` (stereo unspecified) | 17.75% | -2.753% |
| `CS(=O)(=O)CCNC(=O)NCCc1cc2ccccc2o1` | 3.014% | 11.76% |
| `CCn1ccnc1CN1CCCN(CC2CC2)C(C(C)C)C1` (stereo unspecified) | 10.57% | -14.13% |
| `CCCn1nc(C)c(C(=O)N(C)[C@@H]2CC[C@@H](N3CCCC3)[C@@H]2O)c1C` | 13.98% | 12.7% |
| `Cc1ccc2nc(C3CCCN(Cc4ccccc4)C3)nc(O)c2c1` (stereo unspecified) | 5.143% | -29.03% |
| `Cc1ccc(C)c(N2CCN(CC3(O)CCNC3)CC2)c1` (stereo unspecified) | 12.53% | -10.32% |
| `Cc1ccc(C(C)NCCc2nccn2Cc2ccccc2)o1` (stereo unspecified) | 6.593% | -11.63% |
| `COc1ncccc1NC(=O)N(Cc1ccc(C(N)=O)cc1)C1CC1` | 15.34% | 5.612% |
| `O=C(CC1CC1)N1Cc2nccn2CC(CN2CCCC2)C1` (stereo unspecified) | 4.762% | -30.6% |
| `O=C(O)C(F)(F)F.[H][C@]12CCN(c3ncccn3)CC[C@@]1([H])S(=O)(=O)N(CC(=O)N(C)C)C2` | - | -46.45% |
| `N#CCCCn1nnnc1Cc1ccc(Br)cc1` | 14.54% | 28.84% |
| `CC(=O)N1CC[C@H](c2nnc(Cc3c[nH]c4ccccc34)o2)C1` | 6.767% | -14.58% |
| `COC(=O)N1CCN(Cc2csc(-c3ncccn3)n2)CC1` | 12.73% | -12.04% |
| `COC(=O)c1ccc(N2CCN(C(=O)c3cnc(C)cn3)C(C)C2)cc1` (stereo unspecified) | 20.11% | -14.05% |
| `Cn1ccnc1-c1noc(NCc2ccccc2)n1` | 20.64% | -11.97% |
| `[H][C@]12CC[C@]([H])(CN(Cc3ccncc3)C1)N(C(=O)CSc1ncccn1)C2` | - | 22.41% |
| `COCCN1CCN(Cc2c(C)noc2C)Cc2ccc(C)nc21` | 4.53% | - |
| `N#CCCN(CC1CCOC1)Cn1ccc(-c2ccccc2)n1` (stereo unspecified) | 11.96% | 9.009% |
| `CN(CC1COc2ccccc2O1)C(=O)C1=NN(C)C(=O)CC1` (stereo unspecified) | 11.87% | -29.36% |
| `Fc1cccc(-n2nc(C3CC3)nc2CCn2cnnn2)c1` | 13.94% | 19.84% |
| `CN(Cc1ncc[nH]1)S(=O)(=O)c1cccc(C(=O)N2CCOCC2)c1` | 13.3% | 5.809% |
| `Cn1c(CO)nnc1CC1CCN(Cc2ccc(C#N)cc2)CC1` | - | 13.06% |
| `Cn1ncc2c1CCCC2NCc1cccc(OC2CCCC2)c1` (stereo unspecified) | 14.42% | -2.35% |
| `O=C(O)C(F)(F)F.O=C(O)C(F)(F)F.O=C(O)C(F)(F)F.[H][C@@]12CCN(Cc3cccnc3)[C@@]1([H])CCN2Cc1ccc2c(c1)OCO2` | - | -30.57% |
| `CC1CCC(NCCCN2CCOCC2)CC1` (stereo unspecified) | 10% | 0.9572% |
| `CCN(C(=O)CN1CCCC1c1ccc(OC)cc1)c1ccccc1C` (stereo unspecified) | 21.31% | 26.69% |
| `Cc1ccsc1C(=O)N1Cc2ncn(C)c2C(COCC2CC2)C1.O=C(O)C(F)(F)F` (stereo unspecified) | - | -4.343% |
| `Cc1nc(CC(=O)N2CCC(Nc3cccnn3)CC2)cs1` | 6.266% | -1.756% |
| `Cc1cccc(CN2CC[C@H]3[C@H]2CCN3C(=O)c2cnn(C)c2)n1` | 4.712% | - |
| `O=C(O)C(F)(F)F.[H][C@@]12CCN(C(C)C)C[C@]1([H])CN(C(=O)c1cccc(C)c1)C2` | - | -21.48% |
| `O=C(O)C(F)(F)F.[H][C@@]12CN(Cc3ccco3)CCC[C@]1(C(=O)OCC)CN(S(C)(=O)=O)C2` | - | 3.985% |
| `CC1CCCCN1Cc1ccc(-c2ccccc2C(=O)O)cc1` (stereo unspecified) | 15.73% | 7.63% |
| `Cn1cc(CN2CCC3(CCCN(C(=O)c4cnccn4)C3)C2)cn1` (stereo unspecified) | 11.64% | -6.425% |
| `CC(C)n1cnc2c1C(C(=O)NCCO)N(Cc1ccccc1)CC2.O=C(O)C(F)(F)F` (stereo unspecified) | - | -15.88% |
| `Cc1cc(CN2CC[C@H]3[C@H]2CCN3CC(=O)N(C)C)oc1C` | 11.11% | - |
| `COc1c(C2CCCN2C(=O)c2ccnc(C)n2)c(C)nn1C` (stereo unspecified) | 18.23% | 3.035% |
| `Cc1cnc(NC(=O)c2cccc(CN(C)Cc3snnc3C)c2)s1` | -6.959% | 9.507% |
| `COc1ccc2cc(C3CN(C(=O)C4CCOCC4)CCO3)ccc2c1` (stereo unspecified) | 14.13% | 8.733% |
| `CC(=O)NCc1nnc2n1CCN(c1ncnc3c(C)csc13)CC2` | 2.448% | -22.39% |
| `CCN(CC(=O)NCc1nc(C2CC2)no1)Cc1ccc(Cl)cc1` | 18.12% | 12.45% |
| `CN(C)C(=O)CC1CC2(CCN(Cc3ccoc3)CC2)c2ccccc21` (stereo unspecified) | 18.16% | - |
| `COCCCNC(=O)Nc1ccc(-n2cncn2)c(C(F)(F)F)c1` | 5.789% | 30.41% |
| `COc1cccn(CC(=O)N2CCC3(CCNCC3)C2)c1=O` | 11.63% | 16.35% |
| `O=C1CCC2(CCNCC2)CN1CCCNc1cccnc1` | 12.63% | -22.95% |
| `CCc1ncc2c(n1)CN(Cc1nc(-c3ccsc3)oc1C)CC2` | 20.47% | 30.48% |
| `N#CC1(NC(=O)c2ccc(F)c(Br)c2)CCSC1` (stereo unspecified) | 15.82% | -4.746% |
| `CCc1noc(CS(=O)(=O)C(C)c2nc(C3CC3)no2)n1` (stereo unspecified) | -2.899% | -19.73% |
| `O=C(C1CCCN1c1ncnc2ccsc12)N1CCSCC1` (stereo unspecified) | 13.98% | -24.82% |
| `CN(C)C(=O)c1ccc(C2CCCN2C(=O)CCC2=NNC(=O)CC2)s1` (stereo unspecified) | 11.17% | 8.348% |
| `O=C(NCc1ccccn1)C1CN(c2nc3ccccc3s2)CCN1` (stereo unspecified) | 5.651% | -6.361% |
| `c1ccc(-n2cc(CNC3CCc4ncnn4C3)cn2)cc1` (stereo unspecified) | 23.5% | -17.75% |
| `Cc1ccsc1CNc1ccccc1C(=O)N1CCNC(=O)C1` | 7.521% | -30.17% |
| `CN(CC(=O)Nc1cc(-c2cc(Cl)cc(Cl)c2)[nH]n1)S(C)(=O)=O` | 11.11% | -27.36% |
| `O=C(NCc1nnc2n1CCCCC2)N(CC1CCOC1)C1CC1` (stereo unspecified) | 17.48% | -17.86% |
| `Cc1cc(C)cc(OCCN(C)Cc2cscn2)c1` | 1.571% | -20.71% |
| `c1ccc(-c2n[nH]c(CCNc3nnc(C4CCC4)o3)n2)cc1` | 10.78% | -26.07% |
| `Cc1cc(C(=O)N2CCN(c3ncc4c(n3)CCOC4)CC2)sc1C` | 13.37% | -0.8808% |
| `Nc1nccnc1C(=O)N1CCN(Cc2cccc3ccccc23)CC1` | 7.33% | -26.42% |
| `O=C(O)C(F)(F)F.[H][C@@]12CCN(c3nncs3)[C@@]1([H])CCN2C(=O)N(C)C` | - | -39.17% |
| `O=C(O)C(F)(F)F.O=C1CC(c2ccccc2)C2(CCN(CC3CC3)CC2)N1` (stereo unspecified) | - | -0.0393% |
| `CCc1nc(CNc2cc(C)nc(-c3cccnc3)n2)cs1` | 8.889% | 16% |
| `N#Cc1ccccc1NC(=O)c1ccc2c(c1)OCO2` | 8.399% | 25.89% |
| `O=C(c1ccnnc1)N1CCn2cc(CN3CCCCC3)nc2C1` | 3.98% | 12.66% |
| `COCC1(NC(=O)Nc2nc(C)ns2)CCCC1` | 12.81% | 10.1% |
| `COc1cccc(CC(=O)N2CC[C@H]3[C@@H]2CCC(=O)N3C)c1` | 4.498% | - |
| `CCN1CCN(C2CCN(Cc3nnc(C(C)C)o3)CC2)C1=O` | 13.26% | -3.831% |
| `Cc1cc(-c2cc(S(=O)(=O)N3C[C@H](C4CC4)[C@@H](N)C3)c(C)s2)[nH]n1` | 17.98% | 10.49% |
| `O=C(c1ccc(S(=O)(=O)NCc2ccon2)cc1)N1CCOCC1` | 9.148% | -20.45% |
| `COCC1CN(C(=O)c2cccn2C)Cc2cnn(C)c21` (stereo unspecified) | 11.35% | 29.01% |
| `O=C(NCCc1cccnc1)c1nc2c(s1)CCCN2C(=O)C1CC1.O=C(O)C(F)(F)F` | - | 31.31% |
| `COc1c(CNCc2ccc(C(=O)N(C)C)cc2)c(C)nn1C` | 15.28% | - |

For reference, 6 entries once more:

| SMILES | LdMetRS | Mtb heat-shock |
|---|---|---|
| `O=C(c1ccnnc1)N1CCn2cc(CN3CCCCC3)nc2C1` | 3.98% | 12.66% |
| `Cc1ncoc1C(=O)N1C[C@H]2CCC[C@@]2(COCc2cccnc2)C1` | 8.125% | - |
| `O=C(O)C(F)(F)F.[H][C@@]12CCN(c3nncs3)[C@@]1([H])CCN2C(=O)N(C)C` | - | -39.17% |
| `c1ccc(-n2cc(CNC3CCc4ncnn4C3)cn2)cc1` (stereo unspecified) | 23.5% | -17.75% |
| `CCc1nc(CNc2cc(C)nc(-c3cccnc3)n2)cs1` | 8.889% | 16% |
| `COc1ccc2cc(C3CN(C(=O)C4CCOCC4)CCO3)ccc2c1` (stereo unspecified) | 14.13% | 8.733% |